{
  "source": "PubChem BioAssay AID248",
  "about": "(DTP/NCI, 2004)",
  "test_system": "L1210 leukemia ip in BDF1 mice, survival T/C",
  "assay": "NCI In Vivo Anticancer Drug Screen. Data for tumor model L1210 Leukemia (intraperitoneal) in B6D2F1 (BDF1) mice",
  "details": "T/C endpoint: mean survival time, higher T/C = longer survival",
  "key": {"[1]": {"details": "dose: 400.0 mg/kg/injection, schedule: Q04DX003 (ip), vehicle: saline with Tween-80"}, "[2]": {"details": "dose: 160.0 mg/kg/injection, schedule: Q01DX009 (ip), vehicle: saline"}, "[3]": {"details": "dose: 50.0 mg/kg/injection, schedule: Q01DX009 (ip), vehicle: Klucel (hydroxypropylcellulose) (HPC)"}, "[4]": {"details": "dose: 100.0 mg/kg/injection, schedule: Q04DX003 (ip), vehicle: Klucel (hydroxypropylcellulose) (HPC)"}, "[5]": {"details": "dose: 200.0 mg/kg/injection, schedule: Q04DX003 (ip), vehicle: Klucel (hydroxypropylcellulose) (HPC)"}, "[6]": {"details": "dose: 400.0 mg/kg/injection, schedule: Q04DX003 (ip), vehicle: Klucel (hydroxypropylcellulose) (HPC)"}, "[7]": {"details": "dose: 50.0 mg/kg/injection, schedule: Q04DX002 (ip), vehicle: saline"}, "[8]": {"details": "dose: 100.0 mg/kg/injection, schedule: Q04DX002 (ip), vehicle: saline"}, "[9]": {"details": "dose: 200.0 mg/kg/injection, schedule: Q04DX002 (ip), vehicle: saline"}, "[10]": {"details": "dose: 400.0 mg/kg/injection, schedule: Q04DX002 (ip), vehicle: saline"}},
  "note": "The list is a part of this screen's results and no random one: it gathers tests that were run many times, whatever their T/C, doses with no T/C, and many T/C values between a quarter and a half above the control. Other doses and runs of a compound stand elsewhere. T/C is the treated group as % of the vehicle group. Some entries give survivors of the animals treated and no T/C: the source holds a T/C of zero for them, seemingly a mark for toxic or unscored doses. Some survivor counts are full or nearly so, which does not show that the dose was tolerated: the source hardly ever lists a survival T/C far under the control, and the zero likely stands for such cases as well. Survivors were counted at the toxicity check, usually on the fifth day, unless a day is given; later deaths do not show. Schedule codes are those of the source, taken here to give the interval after Q, in days (D) or hours (H), and the number of doses after X. Some schedules carry Z or #; the key to these is not given. Where survival is the endpoint, this PubChem deposit counts one and a half times the control or more as active, and values a quarter to a half above the control carry no call in these data; other NCI protocols may use other cut-offs. Some T/C values are followed by the survivors on the day toxicity was checked, most often the fifth; without a count, all were alive then. Some doses were run more than once; the values are given in rising order.",
  "data": [
    {"smiles": "CC1C(C)N1P(I)(c1ccccc1)(c1ccccc1)c1ccccc1", "note": "(stereo not given)", "values": [
      {"measurement": "survivor count", "setting": "dose: 5.0 mg/kg/injection, schedule: Q01DX001 (ip), vehicle: carboxymethylcellulose (CMC)", "result": "1 of 6"},
      {"measurement": "survivor count", "setting": "dose: 10.0 mg/kg/injection, schedule: Q01DX001 (ip), vehicle: carboxymethylcellulose (CMC)", "result": "2 of 6"},
      {"measurement": "survivor count", "setting": "dose: 15.0 mg/kg/injection, schedule: Q01DX001 (ip), vehicle: carboxymethylcellulose (CMC)", "result": "2 of 6"},
      {"measurement": "survivor count", "setting": "dose: 30.0 mg/kg/injection, schedule: Q01DX001 (ip), vehicle: carboxymethylcellulose (CMC)", "result": "0 of 6"},
      {"measurement": "survivor count", "setting": "dose: 60.0 mg/kg/injection, schedule: Q01DX001 (ip), vehicle: carboxymethylcellulose (CMC)", "result": "0 of 6"},
      {"measurement": "survivor count", "setting": "dose: 75.0 mg/kg/injection, schedule: Q01DX001 (ip), vehicle: carboxymethylcellulose (CMC)", "result": "0 of 6"},
      {"measurement": "survivor count", "setting": "dose: 150.0 mg/kg/injection, schedule: Q01DX001 (ip), vehicle: carboxymethylcellulose (CMC)", "result": "0 of 6"},
      {"measurement": "survivor count", "setting": "dose: 300.0 mg/kg/injection, schedule: Q01DX001 (ip), vehicle: carboxymethylcellulose (CMC)", "result": "0 of 6"}
    ]},
    {"smiles": "O=[N+]([O-])c1ccc(/C=N/c2ncc(Br)s2)o1", "values": [
      {"measurement": "survivor count", "setting": "dose: 200.0 mg/kg/injection, schedule: Q01DX009 (ip), vehicle: saline with Tween-80", "result": "2 of 6"},
      {"measurement": "survivor count", "setting": "[1]", "result": "2 of 6"}
    ]},
    {"smiles": "CCOC(=O)Cc1cnc(SC)nc1Cl", "values": [
      {"measurement": "survivor count", "setting": "[1]", "result": "1 of 6"}
    ]},
    {"smiles": "CCCCCCCCCCCCCCCCCCNC(=O)CCl", "values": [
      {"measurement": "survivor count", "setting": "dose: 400.0 mg/kg/injection, schedule: Q01DX009 (ip), vehicle: Klucel (hydroxypropylcellulose) (HPC)", "result": "3 of 6"}
    ]},
    {"smiles": "CS(=O)(=O)Nc1ccc(Nc2c3ccccc3nc3ccccc23)cc1", "values": [
      {"measurement": "T/C", "setting": "dose: 10.0 mg/kg/injection, schedule: Q01DX009 (ip), vehicle: saline", "result": "133 % of control"},
      {"measurement": "T/C", "setting": "dose: 40.0 mg/kg/injection, schedule: Q01DX009 (sc), vehicle: saline", "result": "130 % of control"},
      {"measurement": "survivor count", "setting": "dose: 78.0 mg/kg/injection, schedule: Q01DX009 (ip), vehicle: carboxymethylcellulose (CMC)", "result": "0 of 6"},
      {"measurement": "survivor count", "setting": "dose: 80.0 mg/kg/injection, schedule: Q01DX009 (ip), vehicle: saline", "result": "6 of 6"},
      {"measurement": "T/C", "setting": "dose: 80.0 mg/kg/injection, schedule: Q01DX009 (sc), vehicle: saline", "result": "126 % of control"},
      {"measurement": "survivor count", "setting": "[2]", "result": "6 of 6"},
      {"measurement": "T/C", "setting": "dose: 177.0 mg/kg/injection, schedule: Q01DX001 (ip), vehicle: carboxymethylcellulose (CMC)", "result": "145 % of control"},
      {"measurement": "survivor count", "setting": "dose: 264.0 mg/kg/injection, schedule: Q01DX009 (ip), vehicle: carboxymethylcellulose (CMC)", "result": "6 of 6"},
      {"measurement": "T/C", "setting": "dose: 365.0 mg/kg/injection, schedule: Q04DX003 (ip), vehicle: Klucel (hydroxypropylcellulose) (HPC)", "result": "136 % of control"},
      {"measurement": "T/C", "setting": "dose: 400.0 mg/kg/injection, schedule: Q01DX001 (ip), vehicle: carboxymethylcellulose (CMC)", "result": "137 % of control"},
      {"measurement": "survivor count", "setting": "dose: 400.0 mg/kg/injection, schedule: Q01DX009 (ip), vehicle: carboxymethylcellulose (CMC)", "result": "6 of 6"}
    ]},
    {"smiles": "CC/C(=N\\N=C(N)N)c1ccc(NC(=S)Nc2ccccc2)cc1", "values": [
      {"measurement": "survivor count", "setting": "[2]", "result": "4 of 6"},
      {"measurement": "survivor count", "setting": "dose: 320.0 mg/kg/injection, schedule: Q01DX009 (ip), vehicle: saline", "result": "0 of 6"}
    ]},
    {"smiles": "Cc1c(Cl)cccc1NC(=S)NC(=O)/C=C/c1ccccc1", "values": [
      {"measurement": "survivor count", "setting": "dose: 200.0 mg/kg/injection, schedule: Q01DX001 (ip), vehicle: saline with Tween-80", "result": "6 of 6"},
      {"measurement": "survivor count", "setting": "dose: 200.0 mg/kg/injection, schedule: Q04DX003 (ip), vehicle: saline with Tween-80", "result": "6 of 6"}
    ]},
    {"smiles": "O[C@H](c1cc(C(F)(F)F)nc2c(C(F)(F)F)cccc12)[C@@H]1CCCCN1", "values": [
      {"measurement": "survivor count", "setting": "[3]", "result": "3 of 6"},
      {"measurement": "survivor count", "setting": "[4]", "result": "2 of 6"},
      {"measurement": "survivor count", "setting": "[5]", "result": "1 of 6"},
      {"measurement": "survivor count", "setting": "[6]", "result": "0 of 6"}
    ]},
    {"smiles": "CC1(C)N=C(N)N=C(N)N1c1cccc(CCC(=O)Nc2ccc(S(=O)(=O)F)cc2)c1", "values": [
      {"measurement": "survivor count", "setting": "dose: 500.0 mg/kg/injection, schedule: Q01DX009 (ip), vehicle: saline", "result": "3 of 6"}
    ]},
    {"smiles": "CN(C)C(C#N)c1c[nH]c2ccccc12", "note": "(stereo not given)", "values": [
      {"measurement": "survivor count", "setting": "[3]", "result": "0 of 6"},
      {"measurement": "survivor count", "setting": "[4]", "result": "1 of 6"},
      {"measurement": "survivor count", "setting": "[5]", "result": "0 of 6"},
      {"measurement": "survivor count", "setting": "[6]", "result": "1 of 6"}
    ]},
    {"smiles": "Cc1cccc(C)[n+]1CC(=O)CCCCCCC(=O)C[n+]1c(C)cccc1C", "values": [
      {"measurement": "survivor count", "setting": "dose: 50.0 mg/kg/injection, schedule: Q01DX001 (ip), vehicle: saline", "result": "0 of 6"},
      {"measurement": "survivor count", "setting": "dose: 100.0 mg/kg/injection, schedule: Q01DX001 (ip), vehicle: saline", "result": "0 of 6"},
      {"measurement": "survivor count", "setting": "dose: 200.0 mg/kg/injection, schedule: Q01DX001 (ip), vehicle: saline", "result": "0 of 6"}
    ]},
    {"smiles": "Oc1c(Cl)c(Cl)cc(Cl)c1Cc1c(Cl)cc(Cl)c(Cl)c1[O][Pb]([c]1ccccc1)([c]1ccccc1)[c]1ccccc1", "values": [
      {"measurement": "survivor count", "setting": "dose: 25.0 mg/kg/injection, schedule: Q01DX009 (ip), vehicle: saline", "result": "3 of 6"},
      {"measurement": "survivor count", "setting": "[7]", "result": "2 of 3"},
      {"measurement": "survivor count", "setting": "[8]", "result": "3 of 3"},
      {"measurement": "survivor count", "setting": "[9]", "result": "0 of 3"},
      {"measurement": "survivor count", "setting": "[10]", "result": "0 of 3"}
    ]},
    {"smiles": "CS(=O)(=O)c1ccc(Nn2c(N)nn(-c3ccc(S(C)(=O)=O)cc3)c2=N)cc1", "values": [
      {"measurement": "survivor count", "setting": "dose: 100.0 mg/kg/injection, schedule: Q01DX009 (ip), vehicle: saline", "result": "3 of 3"}
    ]},
    {"smiles": "[CH3][Pb]([CH3])([CH3])[O]C(=O)C(F)(F)F", "values": [
      {"measurement": "survivor count", "setting": "dose: 25.0 mg/kg/injection, schedule: Q04DX002 (ip), vehicle: saline", "result": "3 of 3"},
      {"measurement": "survivor count", "setting": "[7]", "result": "0 of 3"},
      {"measurement": "survivor count", "setting": "[8]", "result": "0 of 3"},
      {"measurement": "survivor count", "setting": "[9]", "result": "0 of 3"},
      {"measurement": "survivor count", "setting": "[10]", "result": "0 of 3"}
    ]},
    {"smiles": "CC(=O)Nn1cnc2c(=S)nc[nH]c21", "values": [
      {"measurement": "T/C", "setting": "dose: 30.0 mg/kg/injection, schedule: Q01DX009 (ip), vehicle: saline with Tween-80", "result": "125 % of control"},
      {"measurement": "T/C", "setting": "dose: 44.0 mg/kg/injection, schedule: Q01DX009 (ip), vehicle: saline with Tween-80", "result": "125 and 129 % of control"},
      {"measurement": "T/C", "setting": "dose: 67.0 mg/kg/injection, schedule: Q01DX009 (ip), vehicle: saline with Tween-80", "result": "146 % of control [5 of 6 alive]"},
      {"measurement": "T/C", "setting": "dose: 100.0 mg/kg/injection, schedule: Q01DX009 (ip), vehicle: saline with Tween-80", "result": "135 and 146 % of control [4 of 6 alive]"},
      {"measurement": "survivor count", "setting": "dose: 150.0 mg/kg/injection, schedule: Q01DX009 (ip), vehicle: saline with Tween-80", "result": "3 of 6"},
      {"measurement": "T/C", "setting": "dose: 400.0 mg/kg/injection, schedule: Q01DX001 (ip), vehicle: saline with Tween-80", "result": "128 % of control [4 of 6 alive]"},
      {"measurement": "survivor count", "setting": "dose: 400.0 mg/kg/injection, schedule: Q01DX009 (ip), vehicle: saline with Tween-80", "result": "0 of 6"},
      {"measurement": "survivor count", "setting": "dose: 600.0 mg/kg/injection, schedule: Q01DX001 (ip), vehicle: saline with Tween-80", "result": "1 of 6"}
    ]},
    {"smiles": "C/C(=N\\N=C(N)N)c1cccs1", "values": [
      {"measurement": "survivor count", "setting": "dose: 30.0 mg/kg/injection, schedule: Q01DX Z (oral), vehicle: carboxymethylcellulose (CMC)", "result": "3 of 6"},
      {"measurement": "survivor count", "setting": "dose: 60.0 mg/kg/injection, schedule: Q01DX Z (oral), vehicle: carboxymethylcellulose (CMC)", "result": "0 of 6"}
    ]}
  ]
}
